# Laboratory results: publication PMC10683472, “Deep Learning-Driven Library Design for the De Novo Discovery of Bioactive Thiopeptides” (ACS Central Science, 2023)
# Test system: LazBCDEF
# Assay: Enzymatic maturation with Laz enzymes, LC/MS analysis
# Format: biochemical
# Set-up: key: +++/++/+/– scale; +++/++/+/– scale; +++/++/+/– scale; +++/++/+/– scale
# Details: semiquantitative LC/MS of the in vitro translated precursor treated with Laz enzymes
smiles,measurement,value
"C=C1NC(=O)CNC(=O)[C@H]([C@@H](C)CC)NC(=O)[C@H]([C@@H](C)CC)NC(=O)CNC(=O)[C@H](CCC(N)=O)NC(=O)CNC(=O)[C@H](CCCC(N)=O)NC(=O)[C@H](Cc2c[nH]c3ccccc23)NC(=O)[C@H](C(C)C)NC(=O)[C@H]([C@@H](C)CC)NC(=O)[C@H](CC(N)=O)NC(=O)[C@H](CO)NC(=O)[C@H](Cc2c[nH]c3ccccc23)NC(=O)c2ccc(-c3nc(C(=O)OC)cs3)nc2-c2csc1n2 [TL10] (HELM PEPTIDE1{W.S.N.I.V.W.[O=C([C@H](CCCC(=O)[*:3])N[*:1])[*:2]].G.Q.G.I.I.G}|PEPTIDE2{[am]}|CHEM1{[C=C(N[*:2])c1nc(-c2nc(-c3nc(C(=O)OC)cs3)ccc2C(=O)[*:1])cs1]}$PEPTIDE1,PEPTIDE2,7:R3-1:R1|PEPTIDE1,CHEM1,1:R1-1:R1|PEPTIDE1,CHEM1,13:R2-1:R2$$$V2.0; bridges inferred)",maturation experimental,+++

# Where a SMILES comes first, the peptide text is derived from it.
